# Experimental data taken from US20220008365A1, “Treating Intraocular Retinoblastoma with Inhibitors of Histone Modification” (Vanderbilt University, priority 2018, published 2022).
# Tested on: human retinoblastoma cells
# Experiment: killing of human retinoblastoma cells in cell culture
# Format: cell-based
# Details: brief pulse exposure, multiple concentrations
# Procedure: The present inventors have additionally determined the pharmacokinetics of belinostat when injected directly into the vitreous of the rabbit eye and have calculated its intraocular half-life in vivo. […] Specifically, once the PK curve of intravitreally-injected belinostat was determined and the half-life calculated, human retinoblastoma cells were incubated in cell culture in media containing varying concentrations of belinostat for a length of time equivalent to 5 intraocular half-lives, the media was then replaced with belinostat-free media and incubated for 7 days, and the number of surviving cells was then determined. Then, as an example, the present inventors back-calculated the initial intravitreal injection dose that would ensure that a concentration equal to or above the in vitro IC90 would be achieved even out to 5 half-lives, in vivo.
compound,measurement,value
"O=C(CCCCCCC(=O)Nc1ccccc1)NO [vorinostat, suberanilohydroxamic acid]",killing of human retinoblastoma cells by a brief pulse of HDAC inhibitor,can be killed by exposure to a brief pulse
